# Experimental data: the supplement of paper PMC4604168 (melanoma cell lines)
# The other results are listed elsewhere or left out. Repeats are few or missing, and single values can be far off.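 The apoptosis fraction was the count of cleaved-PARP antibody-stained nuclei relative to all DNA-stained nuclei, imaged in 1,536-well plates. Screening doses were set so most cells survived, and baseline and induced cleaved-PARP levels vary greatly across cell lines.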
# Columns and labels:
# Assay in all cases: cleaved PARP positive nuclei fraction relative to DMSO control; melanoma cells; higher = more apoptosis
# Conditions in all cases: library dose: low library concentration; 72 h
# [1] = system: CBRC034 (line from a melanoma biopsy)
# [2] = system: COLO792
# [3] = system: COLO800
# [4] = system: COLO829
# [5] = system: G361
# [6] = system: IPC-298
# [7] = system: IST-MEL1
# [8] = system: LB2518-MEL
# [9] = system: LOXIMVI
# [10] = system: MZ2-MEL
# [11] = system: MeWo
# [12] = system: RPMI7951
# [13] = system: RVH-421
# [14] = system: SkMel28
# [15] = system: SkMel30
# [16] = system: SkMel5
# [17] = system: UACC257
# [18] = system: UACC62
SMILES,cleaved PARP positive nuclei fraction [1] [%],cleaved PARP positive nuclei fraction [2] [%],cleaved PARP positive nuclei fraction [3] [%],cleaved PARP positive nuclei fraction [4] [%],cleaved PARP positive nuclei fraction [5] [%],cleaved PARP positive nuclei fraction [6] [%],cleaved PARP positive nuclei fraction [7] [%],cleaved PARP positive nuclei fraction [8] [%],cleaved PARP positive nuclei fraction [9] [%],cleaved PARP positive nuclei fraction [10] [%],cleaved PARP positive nuclei fraction [11] [%],cleaved PARP positive nuclei fraction [12] [%],cleaved PARP positive nuclei fraction [13] [%],cleaved PARP positive nuclei fraction [14] [%],cleaved PARP positive nuclei fraction [15] [%],cleaved PARP positive nuclei fraction [16] [%],cleaved PARP positive nuclei fraction [17] [%],cleaved PARP positive nuclei fraction [18] [%]
"Cn1c(Nc2ccc(C(F)(F)F)cc2)nc2cc(Oc3ccnc(-c4ncc(C(F)(F)F)[nH]4)c3)ccc21 + CCN(CC)CCCCNc1ncc2cc(-c3cc(OC)cc(OC)c3)c(NC(=O)NC(C)(C)C)nc2n1 [PD173074] (first compound 0.08 µM, partner dose 0.1 µM)",103,371,94.5,63.2,168,70.4,148,169,74,110,79.4,59.7,57.4,239,44.4,58.6,314,53.7
"CO[C@@H]1[C@H](N(C)C(=O)c2ccccc2)C[C@H]2O[C@]1(C)n1c3ccccc3c3c4c(c5c6ccccc6n2c5c31)C(=O)NC4 [Midostaurin] + COc1ccc(-c2ccc3c(N4CCOCC4)nc(N4C[C@@H](C)O[C@@H](C)C4)nc3n2)cc1CO [KU0063794] (first compound 0.08 µM, partner dose 0.02 µM)",95.3,88.3,114,129,176,92.6,87.9,87.5,55,68.7,124,91.1,194,126,26.6,58.6,306,153
"Cn1nnc2c(C(N)=O)ncn2c1=O [temozolomide] + CC(C)CCN1c2nc(Nc3cc(F)c(O)c(F)c3)ncc2N(C)C(=O)C1C [BID1870] (first compound 2 µM, partner dose 0.2 µM)",124,138,94.1,111,72.6,87,88.5,80.5,74.3,66.4,54.3,65.4,95.4,150,121,28.1,78.3,46.7
"CC(C)(C)c1cnc(CSc2cnc(NC(=O)C3CCNCC3)s2)o1 + Oc1cc(-c2nc(-c3ccccc3)[nH]c2-c2ccncc2)ccc1Cl [L779450] (first compound 0.01 µM, partner dose 0.2 µM)",90.6,118,195,128,122,105,41.7,82.5,95.7,88.4,98.2,53,63.3,74.2,22.3,50.4,25.8,131
"CC(C)(C)c1cnc(CSc2cnc(NC(=O)C3CCNCC3)s2)o1 + COc1cc(N2CCC(N3CCN(C)CC3)CC2)ccc1Nc1ncc(Cl)c(Nc2ccccc2S(=O)(=O)C(C)C)n1 [NVP-TAE684] (first compound 0.01 µM, partner dose 0.08 µM)",104,101,196,156,96.9,87.9,90.1,86.4,33.4,115,85.9,88.7,102,76.6,43.9,60.4,160,139
"Cn1c(Nc2ccc(C(F)(F)F)cc2)nc2cc(Oc3ccnc(-c4ncc(C(F)(F)F)[nH]4)c3)ccc21 + Cn1cc(/C=C2\C(=O)Nc3cccnc32)c2ccccc21 [GW441756] (first compound 0.08 µM, partner dose 0.4 µM)",98,478,135,122,244,118,36.4,72.4,58.1,118,285,73.8,174,116,49.2,71.3,295,73.1
"O=C(Nc1cccc(Cl)c1)Nc1ncc(CCNc2ncnc3ccsc23)s1 + Oc1cc(-c2nc(-c3ccccc3)[nH]c2-c2ccncc2)ccc1Cl [L779450] (first compound 0.0008 µM, partner dose 0.2 µM)",46,168,149,81.3,68.8,124,88.8,188,113,60.6,48.4,43.9,375,110,20.9,27.6,104,84.6
"Cn1cncc1[C@@](N)(c1ccc(Cl)cc1)c1ccc2c(c1)c(-c1cccc(Cl)c1)cc(=O)n2C [tipifarnib] + O=S(=O)(c1ccccc1)N(CC(F)(F)F)c1ccc(C(O)(C(F)(F)F)C(F)(F)F)cc1 [T0901317] (first compound 0.01 µM, partner dose 1.4 µM)",211,69.3,121,116,162,153,116,49.7,60.4,64.8,65.4,46.1,123,99.2,11.5,41.4,191,286
"C[C@@H]1CCN(C(=O)CC#N)C[C@@H]1N(C)c1ncnc2[nH]ccc12 + COc1ccc2c(c1)CCC1C2CCC2(C)C(NCCCCCCN3C(=O)C=CC3=O)CCC12 [U73122] (first compound 1 µM, partner dose 0.4 µM)",80.6,153,31.1,88.2,74.2,33.3,107,161,12.9,112,19.2,42.5,16.5,145,124,68.3,73.6,62.2
"O=C(CCCCCCC(=O)Nc1ccccc1)NO [vorinostat] + COc1ccc(-c2ccc3c(N4CCOCC4)nc(N4C[C@@H](C)O[C@@H](C)C4)nc3n2)cc1CO [KU0063794] (first compound 0.08 µM, partner dose 0.02 µM)",65.8,108,83.9,210,95.4,173,112,80.2,51.5,32,29.3,46.5,55.6,109,19.7,34.5,269,592
"COc1cc(Nc2ncc(F)c(Nc3ccc4c(n3)NC(=O)C(C)(C)O4)n2)cc(OC)c1OC [Tamatinib] + Oc1cc(-c2nc(-c3ccccc3)[nH]c2-c2ccncc2)ccc1Cl [L779450] (first compound 0.4 µM, partner dose 0.2 µM)",124,248,177,144,122,44,94,108,81.4,163,113,252,68.7,247,32.1,62.2,181,113
"Cc1nc(Nc2ncc(C(=O)Nc3c(C)cccc3Cl)s2)cc(N2CCN(CCO)CC2)n1 [dasatanib] + O=S(=O)(c1ccccc1)N(CC(F)(F)F)c1ccc(C(O)(C(F)(F)F)C(F)(F)F)cc1 [T0901317] (first compound 0.004 µM, partner dose 1.4 µM)",78.1,104,100,156,148,104,99.8,90.7,67.1,51.4,82.5,182,106,186,59.2,30.8,222,71.9
"Cn1c(Nc2ccc(C(F)(F)F)cc2)nc2cc(Oc3ccnc(-c4ncc(C(F)(F)F)[nH]4)c3)ccc21 + CCCCCCCCCCCC1=C(O)C(=O)C=C(O)C1=O [Embelin] (first compound 0.08 µM, partner dose 1.2 µM)",198,245,113,53.8,298,167,174,151,32.9,120,133,250,216,383,47,144,429,411
"O=C(CCCCCCC(=O)Nc1ccccc1)NO [vorinostat] + COc1ccc(COc2ccc(Cc3cnc(N)nc3N)cc2OC)cc1 [GW2580] (first compound 0.08 µM, partner dose 1 µM)",44,115,84.1,96,71.3,26.4,95.5,84.4,80.1,115,49.9,61,65.5,194,16.7,29.1,76.1,57.1
"C[C@]1(c2nc3c(C(N)=O)cccc3[nH]2)CCCN1 [Veliparib] + c1cc(-c2cnn3cc(-c4ccc(OCCN5CCCCC5)cc4)cnc23)ccn1 [Dorsomorphin] (first compound 1.4 µM, partner dose 0.4 µM)",61.7,54.5,114,166,161,43.6,417,178,33.7,178,27.1,100,66.4,174,28.2,63.6,132,42.1
"C[C@]1(c2nc3c(C(N)=O)cccc3[nH]2)CCCN1 [Veliparib] + COc1cc2ncnc(Nc3ccc(Oc4ccccc4)cc3)c2cc1OC [SrcI1] (first compound 1.4 µM, partner dose 2 µM)",77.9,72.1,71.5,85,43.8,119,83.5,41.6,4090,101,273,69.4,105,197,37.3,38,195,693
"CC1(C)NC(=O)N(c2ccc([N+](=O)[O-])c(C(F)(F)F)c2)C1=O [nilutamide] + COc1ccc(COc2ccc(Cc3cnc(N)nc3N)cc2OC)cc1 [GW2580] (first compound 1 µM, partner dose 1 µM)",95.9,174,133,71.5,98.5,62.2,159,82.7,57.8,86.1,50.6,87.1,75.6,273,48.5,113,79.3,68.3
"CC1(C)NC(=O)N(c2ccc([N+](=O)[O-])c(C(F)(F)F)c2)C1=O [nilutamide] + COc1ccc2c(c1)CCC1C2CCC2(C)C(NCCCCCCN3C(=O)C=CC3=O)CCC12 [U73122] (first compound 1 µM, partner dose 0.4 µM)",93,179,75,84,59.4,41.8,42.7,160,81.9,77.5,217,139,115,34.5,28,63.1,42.5,29.3

# An excerpt from above, showing only cleaved PARP positive nuclei fraction [14] [%].
SMILES	cleaved PARP positive nuclei fraction [14] [%]
Cn1c(Nc2ccc(C(F)(F)F)cc2)nc2cc(Oc3ccnc(-c4ncc(C(F)(F)F)[nH]4)c3)ccc21 + CCN(CC)CCCCNc1ncc2cc(-c3cc(OC)cc(OC)c3)c(NC(=O)NC(C)(C)C)nc2n1 [PD173074] (first compound 0.08 µM, partner dose 0.1 µM)	239
CC(C)(C)c1cnc(CSc2cnc(NC(=O)C3CCNCC3)s2)o1 + Oc1cc(-c2nc(-c3ccccc3)[nH]c2-c2ccncc2)ccc1Cl [L779450] (first compound 0.01 µM, partner dose 0.2 µM)	74.2
